# From the supplement of paper PMC8728848
# The other results are listed elsewhere or left out.
# What was measured:
# Assay in all cases: glycan array binding signal (z-score within array); higher = stronger binding
# Conditions in all cases: glycan notation: IUPAC condensed, linker removed
# [1] = molecular target: Fuc(a1-2)[Gal(a1-3)]Gal(b1-4)GlcNAc(b1-2)Man(a1-3)[Fuc(a1-2)[Gal(a1-3)]Gal(b1-4)GlcNAc(b1-2)Man(a1-6)]Man(b1-4)GlcNAc(b1-4)GlcNAc
# How it was run: (§1)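 Glycan array binding is given as a within-array Z-score, which can be read as non-binding when negative. The arrays, 3228 of them, came from the Consortium for Functional Glycomics database and were retained only where the protein sequence was available. Z-scores were averaged across arrays of the same protein sequence at different concentrations or buffers and across linkers.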
# [2] = molecular target: Fuc(a1-2)[Gal(a1-3)]Gal(b1-4)GlcNAc(b1-2)Man(a1-3)[Fuc(a1-2)[Gal(a1-3)]Gal(b1-4)GlcNAc(b1-2)Man(a1-6)]Man(b1-4)GlcNAc(b1-4)[Fuc(a1-6)]GlcNAc
# How it was run: as §1
# [3] = molecular target: Fuc(a1-2)[Gal(a1-3)]Gal(b1-4)GlcNAc(b1-3)GalNAc
# How it was run: as §1
# [4] = molecular target: Fuc(a1-2)[Gal(a1-3)]Gal(b1-4)GlcNAc(b1-3)[Fuc(a1-2)[Gal(a1-3)]Gal(b1-4)GlcNAc(b1-6)]GalNAc
# How it was run: as §1
# [5] = molecular target: Fuc(a1-2)[Gal(a1-3)]Gal(b1-4)GlcNAc(b1-6)GalNAc
# How it was run: as §1
# [6] = molecular target: Fuc(a1-2)[Gal(a1-3)]Gal(b1-4)[Fuc(a1-3)]Glc
# How it was run: as §1
# [7] = molecular target: Fuc(a1-2)[Gal(a1-3)]Gal(b1-4)[Fuc(a1-3)]GlcNAc
# How it was run: as §1
# [8] = molecular target: Fuc(a1-2)[Gal(a1-3)]Gal(b1-4)[Fuc(a1-3)]GlcNAc(b1-3)GalNAc
# How it was run: as §1
# [9] = molecular target: Fuc(a1-2)[Gal(a1-4)]Gal(b1-4)GlcNAc
# How it was run: as §1
# [10] = molecular target: Fuc(a1-2)[GalNAc(a1-3)]Gal
# How it was run: as §1
# [11] = molecular target: Fuc(a1-2)[GalNAc(a1-3)]Gal(b1-3)GalNAc(a1-3)[Fuc(a1-2)]Gal(b1-4)GlcNAc
# How it was run: as §1
# [12] = molecular target: Fuc(a1-2)[GalNAc(a1-3)]Gal(b1-3)GalNAc(b1-3)Gal(a1-4)Gal(b1-4)Glc
# How it was run: as §1
# [13] = molecular target: Fuc(a1-2)[GalNAc(a1-3)]Gal(b1-3)GlcNAc
# How it was run: as §1
# [14] = molecular target: Fuc(a1-2)[GalNAc(a1-3)]Gal(b1-3)GlcNAc(b1-2)Man(a1-3)[Fuc(a1-2)[GalNAc(a1-3)]Gal(b1-3)GlcNAc(b1-2)Man(a1-6)]Man(b1-4)GlcNAc(b1-4)GlcNAc
# How it was run: as §1
# [15] = molecular target: Fuc(a1-2)[GalNAc(a1-3)]Gal(b1-3)GlcNAc(b1-2)Man(a1-3)[Fuc(a1-2)[GalNAc(a1-3)]Gal(b1-3)GlcNAc(b1-2)Man(a1-6)]Man(b1-4)GlcNAc(b1-4)[Fuc(a1-6)]GlcNAc
# How it was run: as §1
# [16] = molecular target: Fuc(a1-2)[GalNAc(a1-3)]Gal(b1-3)GlcNAc(b1-3)GalNAc
# How it was run: as §1
# [17] = molecular target: Fuc(a1-2)[GalNAc(a1-3)]Gal(b1-3)GlcNAc(b1-6)GalNAc
# How it was run: as §1
# [18] = molecular target: Fuc(a1-2)[GalNAc(a1-3)]Gal(b1-4)Glc
# How it was run: as §1
# [19] = molecular target: Fuc(a1-2)[GalNAc(a1-3)]Gal(b1-4)GlcNAc
# How it was run: as §1
# [20] = molecular target: Fuc(a1-2)[GalNAc(a1-3)]Gal(b1-4)GlcNAc(b1-2)Man
# How it was run: as §1
# [21] = molecular target: Fuc(a1-2)[GalNAc(a1-3)]Gal(b1-4)GlcNAc(b1-2)Man(a1-3)[Fuc(a1-2)[GalNAc(a1-3)]Gal(b1-4)GlcNAc(b1-2)Man(a1-6)]Man(b1-4)GlcNAc(b1-4)GlcNAc
# How it was run: as §1
# [22] = molecular target: Fuc(a1-2)[GalNAc(a1-3)]Gal(b1-4)GlcNAc(b1-2)Man(a1-3)[Fuc(a1-2)[GalNAc(a1-3)]Gal(b1-4)GlcNAc(b1-2)Man(a1-6)]Man(b1-4)GlcNAc(b1-4)[Fuc(a1-6)]GlcNAc
# How it was run: as §1
# [23] = molecular target: Fuc(a1-2)[GalNAc(a1-3)]Gal(b1-4)GlcNAc(b1-3)Gal(b1-4)GlcNAc
# How it was run: as §1
# [24] = molecular target: Fuc(a1-2)[GalNAc(a1-3)]Gal(b1-4)GlcNAc(b1-3)Gal(b1-4)GlcNAc(b1-3)Gal(b1-4)GlcNAc
# How it was run: as §1
# [25] = molecular target: Fuc(a1-2)[GalNAc(a1-3)]Gal(b1-4)GlcNAc(b1-3)GalNAc
# How it was run: as §1
# [26] = molecular target: Fuc(a1-2)[GalNAc(a1-3)]Gal(b1-4)GlcNAc(b1-3)[Fuc(a1-2)[GalNAc(a1-3)]Gal(b1-4)GlcNAc(b1-6)]GalNAc
# How it was run: as §1
# [27] = molecular target: Fuc(a1-2)[GalNAc(a1-3)]Gal(b1-4)GlcNAc(b1-6)GalNAc
# How it was run: as §1
# [28] = molecular target: Fuc(a1-2)[GalNAc(a1-3)]Gal(b1-4)[Fuc(a1-3)]GlcNAc
# How it was run: as §1
# [29] = molecular target: Fuc(a1-2)[GalNAc(a1-3)]Gal(b1-4)[Fuc(a1-3)]GlcNAc(b1-3)GalNAc
# How it was run: as §1
# [30] = molecular target: Fuc(a1-2)[GalNAc(a1-4)]Gal(b1-4)GlcNAc
# How it was run: as §1
# [31] = molecular target: Fuc(a1-2)[GalNAc(b1-3)]Gal
# How it was run: as §1
# Fuc(a1-3)GlcNAc = molecular target: Fuc(a1-3)GlcNAc
# How it was run: as §1
# [32] = molecular target: Fuc(a1-3)[Gal(b1-4)]Glc6S
# How it was run: as §1
# [33] = molecular target: Fuc(a1-3)[Gal(b1-4)]GlcNAc
# How it was run: as §1
# [34] = molecular target: Fuc(a1-3)[Gal(b1-4)]GlcNAc(b1-2)Man
# How it was run: as §1
# [35] = molecular target: Fuc(a1-3)[Gal(b1-4)]GlcNAc(b1-2)Man(a1-3)[Fuc(a1-3)[Gal(b1-4)]GlcNAc(b1-2)Man(a1-6)]Man(b1-4)GlcNAc(b1-4)GlcNAc
# How it was run: as §1
# [36] = molecular target: Fuc(a1-3)[Gal(b1-4)]GlcNAc(b1-2)Man(a1-3)[Fuc(a1-3)[Gal(b1-4)]GlcNAc(b1-2)Man(a1-6)]Man(b1-4)GlcNAc(b1-4)[Fuc(a1-6)]GlcNAc
# How it was run: as §1
binder,measurement,setting,value
LlpA (Burkholderia cenocepacia) (protein) MGSSHHHHHHSSGLVPRGSHKILGSNETLSAGNVVYSDNGQYHLAMQTDGNLVVYGPTGAVWQSQTSGSGGNRAVMQGDGNLVIYRADNTAAWSSKTAHPGAFLAVQDDGNVVIYWPRPAWASNTSDPATQQSAESKYLASGSTMSAGQTVTVAQYMLVFQADGNLVLYKNGGNPIWSTGTQGKGATYAVMQSDGNFVIYAGSTALWSTKTNGANGAQLVLQSDGNLVIYAPTAAWSTKFGLVTAPTSTSTSNNGPGSGICVGVCPPHPLNGNPFSPVGVGTTGLGFPTPGYPGAAF,glycan array binding signal (z-score),[1],0.546
same,glycan array binding signal (z-score),[2],0.062
same,glycan array binding signal (z-score),[3],0.11
same,glycan array binding signal (z-score),[4],-0.512
same,glycan array binding signal (z-score),[5],-0.111
same,glycan array binding signal (z-score),[6],-1.36
same,glycan array binding signal (z-score),[7],1.33
same,glycan array binding signal (z-score),[8],1.06
same,glycan array binding signal (z-score),[9],-0.003
same,glycan array binding signal (z-score),[10],-0.443
same,glycan array binding signal (z-score),[11],0.294
same,glycan array binding signal (z-score),[12],-0.271
same,glycan array binding signal (z-score),[13],0.446
same,glycan array binding signal (z-score),[14],-0.334
same,glycan array binding signal (z-score),[15],0.257
same,glycan array binding signal (z-score),[16],0.363
same,glycan array binding signal (z-score),[17],-0.852
same,glycan array binding signal (z-score),[18],0.875
same,glycan array binding signal (z-score),[19],-0.88
same,glycan array binding signal (z-score),[20],-1.34
same,glycan array binding signal (z-score),[21],1.06
same,glycan array binding signal (z-score),[22],0.142
same,glycan array binding signal (z-score),[23],-0.265
same,glycan array binding signal (z-score),[24],1.26
same,glycan array binding signal (z-score),[25],-2.33
same,glycan array binding signal (z-score),[26],0.109
same,glycan array binding signal (z-score),[27],-1.15
same,glycan array binding signal (z-score),[28],0.612
same,glycan array binding signal (z-score),[29],-0.551
same,glycan array binding signal (z-score),[30],0.217
same,glycan array binding signal (z-score),[31],0.18
same,glycan array binding signal (z-score),Fuc(a1-3)GlcNAc,0.988
same,glycan array binding signal (z-score),[32],1.04
same,glycan array binding signal (z-score),[33],0.125
same,glycan array binding signal (z-score),[34],0.528
same,glycan array binding signal (z-score),[35],1.04
same,glycan array binding signal (z-score),[36],2.08

# Reprinted from the results shown (two entries):
binder,measurement,setting,value
LlpA (Burkholderia cenocepacia) (protein) MGSSHHHHHHSSGLVPRGSHKILGSNETLSAGNVVYSDNGQYHLAMQTDGNLVVYGPTGAVWQSQTSGSGGNRAVMQGDGNLVIYRADNTAAWSSKTAHPGAFLAVQDDGNVVIYWPRPAWASNTSDPATQQSAESKYLASGSTMSAGQTVTVAQYMLVFQADGNLVLYKNGGNPIWSTGTQGKGATYAVMQSDGNFVIYAGSTALWSTKTNGANGAQLVLQSDGNLVIYAPTAAWSTKFGLVTAPTSTSTSNNGPGSGICVGVCPPHPLNGNPFSPVGVGTTGLGFPTPGYPGAAF,glycan array binding signal (z-score),[33],0.125
same,glycan array binding signal (z-score),[34],0.528
